The list shows a part of the results. Most entries show no effect beyond the scatter of the controls.
Compound: CN[C@@H]1C[C@H]2O[C@@](C)([C@@H]1OC)n1c3ccccc3c3c4c(c5c6ccccc6n2c5c31)C(=O)NC4 [staurosporine]
Test: log2 fold change of tryptic peptide abundance, ligand vs vehicle (limited proteolysis) (log2 ratio); higher = more trypsin-susceptible (destabilized)
Conditions: ligand concentration: 20 uM; sample: mouse liver crude lysate; replicate design: treated separately

By UniProt entry, the sequences of proteins in these tests, tags left out. Where a name states a change or a piece, a line headed by the entry shows the natural chain unless it says otherwise.
UniProt Q8C6I2: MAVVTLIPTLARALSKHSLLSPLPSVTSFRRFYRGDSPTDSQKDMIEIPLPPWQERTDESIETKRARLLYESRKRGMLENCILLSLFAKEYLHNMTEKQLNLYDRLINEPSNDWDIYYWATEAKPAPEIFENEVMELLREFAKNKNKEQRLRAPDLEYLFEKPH
UniProt Q8BZW8: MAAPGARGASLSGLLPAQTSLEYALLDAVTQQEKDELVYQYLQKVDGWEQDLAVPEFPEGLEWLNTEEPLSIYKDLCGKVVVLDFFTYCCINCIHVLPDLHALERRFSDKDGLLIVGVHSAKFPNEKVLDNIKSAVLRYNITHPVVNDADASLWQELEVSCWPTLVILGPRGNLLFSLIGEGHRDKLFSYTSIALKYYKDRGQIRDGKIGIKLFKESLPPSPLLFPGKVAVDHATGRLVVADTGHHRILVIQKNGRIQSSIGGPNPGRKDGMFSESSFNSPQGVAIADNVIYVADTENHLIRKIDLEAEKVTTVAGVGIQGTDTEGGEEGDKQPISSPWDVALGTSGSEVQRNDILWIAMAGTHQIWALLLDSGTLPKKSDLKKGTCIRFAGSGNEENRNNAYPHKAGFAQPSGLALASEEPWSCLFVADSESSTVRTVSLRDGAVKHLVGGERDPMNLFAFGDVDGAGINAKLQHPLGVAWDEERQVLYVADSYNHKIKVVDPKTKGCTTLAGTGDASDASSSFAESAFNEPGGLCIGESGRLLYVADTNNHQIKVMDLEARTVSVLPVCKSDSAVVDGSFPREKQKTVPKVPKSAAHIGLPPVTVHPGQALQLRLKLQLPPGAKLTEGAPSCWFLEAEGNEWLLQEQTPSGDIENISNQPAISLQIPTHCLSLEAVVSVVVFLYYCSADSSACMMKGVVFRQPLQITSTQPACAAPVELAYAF
UniProt Q8C2B3: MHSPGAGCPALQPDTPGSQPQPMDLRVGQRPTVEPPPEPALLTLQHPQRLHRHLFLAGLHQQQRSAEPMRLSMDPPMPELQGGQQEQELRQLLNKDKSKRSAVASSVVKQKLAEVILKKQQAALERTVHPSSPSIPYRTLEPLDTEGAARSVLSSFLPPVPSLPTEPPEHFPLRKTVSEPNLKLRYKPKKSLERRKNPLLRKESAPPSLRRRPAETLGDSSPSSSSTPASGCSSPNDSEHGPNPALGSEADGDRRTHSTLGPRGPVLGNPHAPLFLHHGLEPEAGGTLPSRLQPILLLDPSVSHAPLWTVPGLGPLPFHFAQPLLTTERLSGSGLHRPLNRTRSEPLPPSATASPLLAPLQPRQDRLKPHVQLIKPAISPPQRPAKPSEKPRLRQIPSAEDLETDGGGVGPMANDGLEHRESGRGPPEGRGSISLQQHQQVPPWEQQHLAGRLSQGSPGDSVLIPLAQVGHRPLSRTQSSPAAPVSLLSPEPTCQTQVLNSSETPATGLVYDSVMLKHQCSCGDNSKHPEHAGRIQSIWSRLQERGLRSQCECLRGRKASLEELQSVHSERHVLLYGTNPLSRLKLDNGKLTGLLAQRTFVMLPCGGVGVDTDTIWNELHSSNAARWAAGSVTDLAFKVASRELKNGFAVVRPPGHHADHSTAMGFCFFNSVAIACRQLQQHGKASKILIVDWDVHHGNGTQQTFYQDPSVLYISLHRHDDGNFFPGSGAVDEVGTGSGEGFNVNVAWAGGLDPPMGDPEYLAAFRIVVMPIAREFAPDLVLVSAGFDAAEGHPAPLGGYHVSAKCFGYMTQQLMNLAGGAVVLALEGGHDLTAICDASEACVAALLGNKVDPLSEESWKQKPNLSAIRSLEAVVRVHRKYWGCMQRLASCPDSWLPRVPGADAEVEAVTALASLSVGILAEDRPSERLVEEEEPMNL
UniProt Q8BWT1: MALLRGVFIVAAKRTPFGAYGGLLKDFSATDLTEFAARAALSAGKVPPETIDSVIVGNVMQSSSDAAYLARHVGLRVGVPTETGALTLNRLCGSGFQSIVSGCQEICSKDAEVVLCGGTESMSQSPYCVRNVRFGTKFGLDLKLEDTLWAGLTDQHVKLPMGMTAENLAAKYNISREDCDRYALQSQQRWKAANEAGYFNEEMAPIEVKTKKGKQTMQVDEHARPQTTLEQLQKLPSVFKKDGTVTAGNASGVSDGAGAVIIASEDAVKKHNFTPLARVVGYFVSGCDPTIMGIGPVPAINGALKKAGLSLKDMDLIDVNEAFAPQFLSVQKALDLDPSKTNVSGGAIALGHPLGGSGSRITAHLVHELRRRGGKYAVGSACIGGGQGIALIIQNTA
UniProt Q8C0J6: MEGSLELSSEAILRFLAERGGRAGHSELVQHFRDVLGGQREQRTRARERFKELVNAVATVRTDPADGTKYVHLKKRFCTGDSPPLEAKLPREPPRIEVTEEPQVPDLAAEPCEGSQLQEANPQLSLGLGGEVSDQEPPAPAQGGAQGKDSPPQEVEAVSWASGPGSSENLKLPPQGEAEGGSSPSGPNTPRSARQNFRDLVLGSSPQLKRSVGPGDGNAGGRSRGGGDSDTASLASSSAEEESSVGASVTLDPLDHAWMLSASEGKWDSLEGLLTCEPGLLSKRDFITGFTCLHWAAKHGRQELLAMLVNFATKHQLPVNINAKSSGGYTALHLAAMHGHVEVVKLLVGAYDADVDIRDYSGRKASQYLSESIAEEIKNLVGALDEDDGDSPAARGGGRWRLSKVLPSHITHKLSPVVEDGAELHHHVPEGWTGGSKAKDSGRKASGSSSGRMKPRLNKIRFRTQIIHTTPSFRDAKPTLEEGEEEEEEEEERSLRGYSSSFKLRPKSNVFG
UniProt Q8BZT9: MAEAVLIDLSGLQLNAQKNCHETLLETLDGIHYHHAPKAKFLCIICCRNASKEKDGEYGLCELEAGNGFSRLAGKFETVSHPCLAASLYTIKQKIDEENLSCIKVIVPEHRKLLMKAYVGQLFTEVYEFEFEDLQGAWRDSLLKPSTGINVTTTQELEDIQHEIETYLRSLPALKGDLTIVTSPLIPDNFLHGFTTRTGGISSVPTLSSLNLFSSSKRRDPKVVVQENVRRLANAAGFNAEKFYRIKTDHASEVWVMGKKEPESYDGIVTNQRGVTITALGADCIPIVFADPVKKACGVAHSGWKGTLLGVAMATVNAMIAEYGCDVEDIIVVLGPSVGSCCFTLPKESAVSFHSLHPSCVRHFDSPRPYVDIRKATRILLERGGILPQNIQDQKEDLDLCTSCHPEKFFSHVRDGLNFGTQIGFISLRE
UniProt Q8BVI5: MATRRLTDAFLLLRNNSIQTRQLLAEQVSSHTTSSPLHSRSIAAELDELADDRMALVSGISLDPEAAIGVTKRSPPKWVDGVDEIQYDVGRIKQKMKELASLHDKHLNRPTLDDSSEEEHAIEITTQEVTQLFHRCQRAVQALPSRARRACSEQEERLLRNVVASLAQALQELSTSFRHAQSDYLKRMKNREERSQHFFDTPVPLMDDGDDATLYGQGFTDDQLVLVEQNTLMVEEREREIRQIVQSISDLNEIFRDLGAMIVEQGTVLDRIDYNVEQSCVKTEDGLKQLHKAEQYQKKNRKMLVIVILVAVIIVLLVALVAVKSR
UniProt Q8C080: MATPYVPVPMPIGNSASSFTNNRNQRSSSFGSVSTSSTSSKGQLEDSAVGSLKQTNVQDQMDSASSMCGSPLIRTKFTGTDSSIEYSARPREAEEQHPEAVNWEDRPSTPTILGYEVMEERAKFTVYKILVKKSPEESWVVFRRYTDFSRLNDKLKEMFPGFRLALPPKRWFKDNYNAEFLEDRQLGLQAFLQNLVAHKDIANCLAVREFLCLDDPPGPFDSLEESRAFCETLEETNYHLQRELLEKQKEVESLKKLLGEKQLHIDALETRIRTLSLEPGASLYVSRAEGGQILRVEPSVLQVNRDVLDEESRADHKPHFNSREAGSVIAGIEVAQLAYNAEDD
UniProt Q8C7E9: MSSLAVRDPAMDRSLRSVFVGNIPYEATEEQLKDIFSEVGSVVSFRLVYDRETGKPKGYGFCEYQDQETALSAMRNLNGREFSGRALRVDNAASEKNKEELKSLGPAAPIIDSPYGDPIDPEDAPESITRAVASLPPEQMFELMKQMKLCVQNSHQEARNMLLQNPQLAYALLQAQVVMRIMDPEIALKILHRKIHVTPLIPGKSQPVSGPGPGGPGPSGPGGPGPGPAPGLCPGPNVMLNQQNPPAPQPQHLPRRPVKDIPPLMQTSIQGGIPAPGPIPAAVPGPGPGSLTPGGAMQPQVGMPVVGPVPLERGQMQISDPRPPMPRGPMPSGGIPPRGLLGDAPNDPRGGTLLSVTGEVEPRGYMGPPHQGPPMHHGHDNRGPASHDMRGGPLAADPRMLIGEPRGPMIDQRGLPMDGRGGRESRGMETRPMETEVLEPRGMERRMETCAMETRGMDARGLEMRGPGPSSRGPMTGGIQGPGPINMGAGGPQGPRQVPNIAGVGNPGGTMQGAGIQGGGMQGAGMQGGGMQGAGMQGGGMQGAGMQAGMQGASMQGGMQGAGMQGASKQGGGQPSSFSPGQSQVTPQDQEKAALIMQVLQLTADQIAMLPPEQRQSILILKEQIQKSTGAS
UniProt Q8BYY4: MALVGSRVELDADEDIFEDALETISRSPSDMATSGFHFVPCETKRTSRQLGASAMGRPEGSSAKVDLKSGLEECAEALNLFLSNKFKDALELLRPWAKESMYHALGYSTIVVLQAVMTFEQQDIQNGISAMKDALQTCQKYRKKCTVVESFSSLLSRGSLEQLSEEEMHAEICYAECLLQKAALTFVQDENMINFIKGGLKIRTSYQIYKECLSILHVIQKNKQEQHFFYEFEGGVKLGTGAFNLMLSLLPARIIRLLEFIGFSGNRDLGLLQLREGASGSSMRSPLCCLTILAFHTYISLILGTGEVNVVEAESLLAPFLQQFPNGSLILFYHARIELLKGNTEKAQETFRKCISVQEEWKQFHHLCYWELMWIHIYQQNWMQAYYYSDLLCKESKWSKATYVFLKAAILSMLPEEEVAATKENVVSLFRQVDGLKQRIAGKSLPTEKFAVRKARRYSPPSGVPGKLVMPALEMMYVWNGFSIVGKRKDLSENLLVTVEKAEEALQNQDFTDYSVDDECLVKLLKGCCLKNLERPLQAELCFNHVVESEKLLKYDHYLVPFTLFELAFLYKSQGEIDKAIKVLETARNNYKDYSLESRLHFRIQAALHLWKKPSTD
UniProt Q8BYR1: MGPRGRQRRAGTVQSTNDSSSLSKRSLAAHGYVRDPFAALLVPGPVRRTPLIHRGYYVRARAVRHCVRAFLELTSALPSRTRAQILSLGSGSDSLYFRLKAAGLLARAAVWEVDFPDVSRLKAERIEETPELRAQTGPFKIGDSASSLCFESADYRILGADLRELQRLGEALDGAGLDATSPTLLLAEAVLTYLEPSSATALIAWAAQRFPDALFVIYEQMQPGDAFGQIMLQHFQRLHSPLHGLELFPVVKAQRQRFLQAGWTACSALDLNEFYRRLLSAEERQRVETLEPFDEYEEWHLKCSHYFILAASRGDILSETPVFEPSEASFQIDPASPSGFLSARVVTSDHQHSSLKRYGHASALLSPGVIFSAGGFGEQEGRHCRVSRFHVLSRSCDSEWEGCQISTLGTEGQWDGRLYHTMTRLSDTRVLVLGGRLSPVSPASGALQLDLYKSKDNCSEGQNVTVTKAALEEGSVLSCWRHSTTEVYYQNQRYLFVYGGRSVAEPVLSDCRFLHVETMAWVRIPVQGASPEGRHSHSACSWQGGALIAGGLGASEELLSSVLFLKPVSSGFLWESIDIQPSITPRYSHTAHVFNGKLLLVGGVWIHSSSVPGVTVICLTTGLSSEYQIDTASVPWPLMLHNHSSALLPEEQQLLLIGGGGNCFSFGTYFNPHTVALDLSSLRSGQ
UniProt Q8BVU0: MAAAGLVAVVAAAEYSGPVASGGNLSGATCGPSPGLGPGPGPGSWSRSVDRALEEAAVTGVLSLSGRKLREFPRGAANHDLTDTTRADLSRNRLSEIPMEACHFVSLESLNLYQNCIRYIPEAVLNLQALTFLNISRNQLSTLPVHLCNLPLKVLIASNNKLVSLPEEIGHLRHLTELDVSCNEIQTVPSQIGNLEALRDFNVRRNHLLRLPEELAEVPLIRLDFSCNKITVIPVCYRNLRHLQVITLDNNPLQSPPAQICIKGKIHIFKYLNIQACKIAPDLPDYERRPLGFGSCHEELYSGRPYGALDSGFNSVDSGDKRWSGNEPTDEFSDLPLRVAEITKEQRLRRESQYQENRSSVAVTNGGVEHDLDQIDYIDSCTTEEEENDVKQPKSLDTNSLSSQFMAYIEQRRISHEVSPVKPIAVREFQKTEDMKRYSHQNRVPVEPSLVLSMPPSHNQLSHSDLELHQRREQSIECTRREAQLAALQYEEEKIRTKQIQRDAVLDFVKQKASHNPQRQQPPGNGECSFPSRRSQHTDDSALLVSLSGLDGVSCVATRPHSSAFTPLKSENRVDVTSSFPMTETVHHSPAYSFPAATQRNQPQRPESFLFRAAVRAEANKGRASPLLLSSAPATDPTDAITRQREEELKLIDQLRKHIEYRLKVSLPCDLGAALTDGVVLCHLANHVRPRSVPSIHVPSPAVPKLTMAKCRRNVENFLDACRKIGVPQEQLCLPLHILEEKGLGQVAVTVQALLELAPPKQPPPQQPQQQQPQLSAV

Row | Target | log2 fold change
1 | UniProt Q8C1D8 (peptide sequence: WNVEMESSR, peptide start residue: 715) | 0.188
2 | UniProt Q8C6I2 (peptide sequence: TDESIETK, peptide start residue: 57) | -0.385
3 | UniProt Q8BZW8 (peptide sequence: LQHPLGVAWDEER, peptide start residue: 474) | -0.238
4 | UniProt Q8C2B3 (peptide sequence: LTGLLAQR, peptide start residue: 591) | 0.423
5 | UniProt Q8C025 (peptide sequence: ALGEPLSAAQLR, peptide start residue: 16) | 0.356
6 | UniProt Q8BWT1 (peptide sequence: TPFGAYGGLLK, peptide start residue: 15) | -0.153
7 | UniProt Q8BYM8 (peptide sequence: LVNTVPSATAEPGDSDKR, peptide start residue: 192) | 0.21
8 | UniProt Q8C0J6 (peptide sequence: FRTQIIHTTPSFR, peptide start residue: 462) | -0.49
9 | UniProt Q8BZT9 (peptide sequence: ACGVAHSGWK, peptide start residue: 296) | -0.695
10 | UniProt Q8CA72 (peptide sequence: KIGCYAAMK, peptide start residue: 412) | 0.388
11 | UniProt Q8C4V1 (peptide sequence: FTMIEIK, peptide start residue: 693) | 0.263
12 | UniProt Q8C547 (peptide sequence: TGHSLALGCLHR, peptide start residue: 910) | 0.698
13 | UniProt Q8BVN4 (peptide sequence: VSEAEFLAR, peptide start residue: 296) | 0.287
14 | UniProt Q8BVI5 (peptide sequence: QLLAEQVSSHTTSSPLHSR, peptide start residue: 22) | 0.19
15 | UniProt Q8C080 (peptide sequence: TKFTGTDSSIEYSARPR, peptide start residue: 75) | 0.214
16 | UniProt Q8C2L6 (peptide sequence: KYNGHIENKPLTIPK, peptide start residue: 65) | 0.13
17 | UniProt Q8BWG9 (peptide sequence: GDHSLTPGTHYA, peptide start residue: 293) | -0.158
18 | UniProt Q8BWS5 (peptide sequence: SENPPPSHLTSK, peptide start residue: 253) | -0.192
19 | UniProt Q8C7E9 (peptide sequence: GQMQISDPRPPMPR, peptide start residue: 314) | 0.217
20 | UniProt Q8BYY4 (peptide sequence: ECLSILHVIQK, peptide start residue: 211) | -0.788
21 | UniProt Q8BYR1 (peptide sequence: IEETPELR, peptide start residue: 126) | -0.294
22 | UniProt Q8C142 (peptide sequence: GEELSAAAVKR, peptide start residue: 62) | -0.244
23 | UniProt Q8BZI0 (peptide sequence: IYDEVPYEK, peptide start residue: 556) | -0.149
24 | UniProt Q8BVU0 (peptide sequence: ESQYQENR, peptide start residue: 351) | -0.306
25 | UniProt Q8C6S9 (peptide sequence: SVIAVHQK, peptide start residue: 2990) | -0.329

Given in markdown: entries from further up.

| Row | Target | log2 fold change |
| --- | --- | --- |
| 13 | UniProt Q8BVN4 (peptide sequence: VSEAEFLAR, peptide start residue: 296) | 0.287 |
| 14 | UniProt Q8BVI5 (peptide sequence: QLLAEQVSSHTTSSPLHSR, peptide start residue: 22) | 0.19 |
